At least one structure is not confirmed: it was looked up by name or label, or the drawing left a doubt.
Assay: Measurement of log P value of the hardly water-soluble polyphenols (flask shaking method, JIS Z7260-107)
Conditions: 1-octanol/water, shaken 4 days at 25° C.
Experimental: The log P value is a common logarithm of the partition coefficient between 1-octanol, and water and an index indicative of a hydrophobicity of an organic compound. Larger positive log P value indicates larger hydrophobicity. […] The details are described in Examples.
[Measurement of Log P Value of the Hardly Water-Soluble Polyphenols]
First, 1-octanol and distilled water were shaken for 24 hours at 25° C. to equilibrate them. Then, 10 mg of polyphenol was weighed into a glass vial with a cap, into which each of 4 mL of the equilibrated 1-octanol and water was added. The vial was shaken for 4 days at 25° C. […] Log P value is a common logarithm of the partition coefficient between the two phases.

COc1ccc([C@@H]2CC(=O)c3c(O)cc(O[C@@H]4O[C@H](CO[C@@H]5O[C@@H](C)[C@H](O)[C@@H](O)[C@H]5O)[C@@H](O)[C@H](O)[C@H]4O)cc3O2)cc1O [Hesperidin, hesperidin]
log P value of (A): −0.24

Reference: patent publication US9688712B2, “Manufacturing method for polyphenol composition” (KAO CORPORATION, priority 2010, dated 2017)
